Columns and labels:
[1] = system: nitrites and nitrates (NOx-); experiment: Measurement of nitrates/nitrites (NOx-) in brain regions after the morphine abstinence experiment; format: in vivo, Wistar rats; details: Group No. 2 (morphine)
Procedure: After the above experiments the rat brains were isolated and immediately placed in the ice cold 0.9% solution of sodium chloride. After cooling the following structures were isolated from the brain: cerebral cortex, hippocampus, mesencephalon, striatum, brainstem, hypothalamus and cerebellum. The isolated tissue was homogenized in a Potter S homogenizer for 3 minutes at 1500 rpm in 4-5 volumes of 20 mM HEPES (pH 7.5) at 4° C. […]
To estimate the intensity of metabolism of nitric oxide in rats, quantitative determination of stable metabolites of nitrogen oxide-nitrites and nitrates (NOx-) was performed using a fluorometric method by fluorescence of naphthotriazole, a product of reaction of 2,3- diaminonaphthalene (DAN) and nitrite in an acidic medium (Misko T. R., Schilling R. J., Salvemini D. et al. A fluorometric assay for the measurement of nitrite in biological samples. Anal. Biochem., 1993, V. 214, p.11-16) with modifications (Lei B., Adachi N., Nagaro T., Arai T. Measurement of total nitric oxide metabolite (NO (x) (-)) levels in vivo. […]
The supernatants of brain deproteinized at 100° C. were placed in a nitrite recovery system containing 0.125 unit/ml of nitrate reductase, 25 μM NADPH and 25 μM FAD prepared in 20 mM Tris-HCl buffer pH 7.6 and incubated for 30 minutes at 37° C. […] For stabilization of fluorescence of the formed naphthotriazole, 280 mM NaOH was added. […]

[2] = system: physical dependence from morphine (morphine abstinence); experiment: Morphine abstinence syndrome, signs scored in the open field test; format: in vivo, Wistar rats; details: Control − morphine, 36 h after last morphine injection
Procedure: Thirty six hours after the last injection selected motor and autonomice parameters which are specific symptoms of abstinence were monitored in the <<open field>> test (an arena with a diameter of 120 cm and wall height of 40 cm).
Med., 2002, V.29, p.1-6.). The observable signs were recorded quantitatively (if it was possible) with further assignment of an index to each sign (depending on the specific feature of the sign) and calculation of the sum of scores. The expression of the abstinence syndrome was presented as a sum of scores. The results were processed using nonparametric statistical analysis based on the Mann-Whitney test.

SMILES: CN1CC[C@]23c4c5ccc(O)c4O[C@H]2[C@@H](O)C=C[C@H]3[C@H]1C5.Cl [morphine, morphine hydrochloride, reference compound]
- Nitrites, brainstem [1]: 7.63 ± 0.96 nmol/mg of protein
- Nitrites, striatum [1]: 4.92 ± 0.43 nmol/mg of protein
- Authentic differences (ξ-square criterion) in appearance of signs of abstinence: Mastication [2]: 0.0308

— patent US7776833B2, “Use of cyclic bioisosters of purine system derivatives for treating diseases produced by disorders of niterergic and dopaminergic systems” (priority 2003, dated 2010)
